According to the supplement of paper PMC12823440, “Inhibitors supercharge kinase turnover through native proteolytic circuits” (Nature, 2025):
Structures can show the parent of a compound that is named as a salt. Some of the results follow. The calls rarely recur for the same compound in another form.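 Kinases were expressed as nanoluciferase fusions in K562 cells and luminescence was read every 4 h between 2 and 18 h as percent of control, DMSO set to 100% and a positive control to 0%. A time point counts as decreased when the signal drops significantly (2 sigma). The hit call is the authors' own, does not follow from the count of time points alone, and its rule is not shown.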

By UniProt entry, the sequences of proteins in these tests, tags left out. Where a name states a change or a piece, a line headed by the entry shows the natural chain unless it says otherwise.
UniProt Q16288, whole entry, looked up: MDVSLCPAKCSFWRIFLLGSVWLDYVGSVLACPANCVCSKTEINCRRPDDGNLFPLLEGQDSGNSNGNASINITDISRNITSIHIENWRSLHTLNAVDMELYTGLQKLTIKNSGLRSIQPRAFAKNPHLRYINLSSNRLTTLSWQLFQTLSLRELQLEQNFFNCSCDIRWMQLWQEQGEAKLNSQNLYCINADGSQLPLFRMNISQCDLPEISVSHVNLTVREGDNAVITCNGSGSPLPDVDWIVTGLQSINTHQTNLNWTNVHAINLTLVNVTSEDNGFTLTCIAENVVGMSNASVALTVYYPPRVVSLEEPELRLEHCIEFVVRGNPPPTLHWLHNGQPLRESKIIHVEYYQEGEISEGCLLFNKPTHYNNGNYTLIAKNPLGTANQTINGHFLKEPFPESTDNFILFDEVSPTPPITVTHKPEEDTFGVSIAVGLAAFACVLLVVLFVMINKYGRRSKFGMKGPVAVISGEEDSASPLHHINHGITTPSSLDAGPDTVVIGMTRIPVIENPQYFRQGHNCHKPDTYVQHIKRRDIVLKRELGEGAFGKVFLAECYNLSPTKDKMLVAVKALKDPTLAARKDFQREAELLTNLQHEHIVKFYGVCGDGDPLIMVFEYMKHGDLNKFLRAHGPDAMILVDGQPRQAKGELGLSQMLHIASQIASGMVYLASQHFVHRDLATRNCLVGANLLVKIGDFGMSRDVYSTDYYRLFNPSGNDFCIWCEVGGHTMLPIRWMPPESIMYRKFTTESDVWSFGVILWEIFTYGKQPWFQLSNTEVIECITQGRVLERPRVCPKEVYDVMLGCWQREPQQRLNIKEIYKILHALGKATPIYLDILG
UniProt O96013: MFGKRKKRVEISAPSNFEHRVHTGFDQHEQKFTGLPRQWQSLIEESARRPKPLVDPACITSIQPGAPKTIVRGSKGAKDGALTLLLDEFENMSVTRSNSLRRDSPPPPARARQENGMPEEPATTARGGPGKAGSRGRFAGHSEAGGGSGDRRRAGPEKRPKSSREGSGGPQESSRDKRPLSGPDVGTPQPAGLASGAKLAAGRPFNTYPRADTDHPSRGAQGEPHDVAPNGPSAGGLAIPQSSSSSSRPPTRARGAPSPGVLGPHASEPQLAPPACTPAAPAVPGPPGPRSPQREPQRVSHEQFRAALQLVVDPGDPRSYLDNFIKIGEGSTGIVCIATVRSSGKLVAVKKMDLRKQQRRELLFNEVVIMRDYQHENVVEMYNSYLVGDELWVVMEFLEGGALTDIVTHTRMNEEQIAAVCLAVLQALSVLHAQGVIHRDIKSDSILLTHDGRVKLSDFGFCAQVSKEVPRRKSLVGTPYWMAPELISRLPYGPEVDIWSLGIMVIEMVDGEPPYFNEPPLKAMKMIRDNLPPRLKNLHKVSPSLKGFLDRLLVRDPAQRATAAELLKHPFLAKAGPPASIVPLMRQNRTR
UniProt Q96KB5: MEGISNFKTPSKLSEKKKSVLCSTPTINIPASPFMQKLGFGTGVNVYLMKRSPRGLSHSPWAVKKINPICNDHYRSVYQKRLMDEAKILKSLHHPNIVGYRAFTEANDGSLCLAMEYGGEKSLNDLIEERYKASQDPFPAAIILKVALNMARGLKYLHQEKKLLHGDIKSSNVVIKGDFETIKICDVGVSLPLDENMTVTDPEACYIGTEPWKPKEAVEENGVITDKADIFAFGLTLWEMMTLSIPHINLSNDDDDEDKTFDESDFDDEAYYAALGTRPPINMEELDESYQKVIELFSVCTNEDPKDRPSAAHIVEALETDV
UniProt P09619, whole entry: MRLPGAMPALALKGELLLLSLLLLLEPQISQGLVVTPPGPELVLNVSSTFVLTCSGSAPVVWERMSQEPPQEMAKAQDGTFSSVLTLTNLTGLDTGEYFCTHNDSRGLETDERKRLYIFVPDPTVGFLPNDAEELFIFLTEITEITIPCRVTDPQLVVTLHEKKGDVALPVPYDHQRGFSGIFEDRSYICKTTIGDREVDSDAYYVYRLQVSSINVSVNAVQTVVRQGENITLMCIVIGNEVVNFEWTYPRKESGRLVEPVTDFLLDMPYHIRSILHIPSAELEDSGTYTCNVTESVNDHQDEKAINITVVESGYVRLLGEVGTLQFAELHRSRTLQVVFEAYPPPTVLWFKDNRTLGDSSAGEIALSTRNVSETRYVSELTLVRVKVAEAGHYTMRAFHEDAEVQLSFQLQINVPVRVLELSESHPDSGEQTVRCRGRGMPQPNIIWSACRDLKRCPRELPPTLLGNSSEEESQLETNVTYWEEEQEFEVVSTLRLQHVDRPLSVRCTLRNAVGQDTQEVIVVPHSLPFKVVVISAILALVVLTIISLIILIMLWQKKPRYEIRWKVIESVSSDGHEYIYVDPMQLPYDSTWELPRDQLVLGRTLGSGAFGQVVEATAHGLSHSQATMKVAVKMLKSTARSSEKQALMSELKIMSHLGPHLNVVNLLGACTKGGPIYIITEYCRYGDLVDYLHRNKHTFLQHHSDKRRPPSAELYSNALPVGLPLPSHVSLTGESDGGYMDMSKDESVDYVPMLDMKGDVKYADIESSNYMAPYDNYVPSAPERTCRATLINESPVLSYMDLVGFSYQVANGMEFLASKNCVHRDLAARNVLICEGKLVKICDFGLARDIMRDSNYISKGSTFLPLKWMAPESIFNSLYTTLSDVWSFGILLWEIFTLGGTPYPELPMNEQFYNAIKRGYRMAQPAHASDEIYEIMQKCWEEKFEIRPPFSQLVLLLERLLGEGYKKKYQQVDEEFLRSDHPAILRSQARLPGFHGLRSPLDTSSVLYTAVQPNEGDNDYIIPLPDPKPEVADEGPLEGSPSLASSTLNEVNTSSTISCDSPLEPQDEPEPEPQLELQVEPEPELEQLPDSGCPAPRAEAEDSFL
UniProt Q15118, whole entry, looked up: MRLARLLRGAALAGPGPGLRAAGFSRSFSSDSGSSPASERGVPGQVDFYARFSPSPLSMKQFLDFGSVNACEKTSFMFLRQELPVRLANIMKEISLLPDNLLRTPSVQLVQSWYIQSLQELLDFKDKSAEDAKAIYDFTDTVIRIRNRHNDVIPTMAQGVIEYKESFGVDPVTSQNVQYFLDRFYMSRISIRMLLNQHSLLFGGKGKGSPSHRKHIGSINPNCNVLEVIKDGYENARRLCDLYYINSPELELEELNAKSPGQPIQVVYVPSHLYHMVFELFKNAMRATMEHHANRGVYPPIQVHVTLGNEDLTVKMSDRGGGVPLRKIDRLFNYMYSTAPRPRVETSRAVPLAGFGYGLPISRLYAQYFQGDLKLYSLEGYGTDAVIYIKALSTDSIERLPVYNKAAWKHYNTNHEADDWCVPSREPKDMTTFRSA
UniProt O15530: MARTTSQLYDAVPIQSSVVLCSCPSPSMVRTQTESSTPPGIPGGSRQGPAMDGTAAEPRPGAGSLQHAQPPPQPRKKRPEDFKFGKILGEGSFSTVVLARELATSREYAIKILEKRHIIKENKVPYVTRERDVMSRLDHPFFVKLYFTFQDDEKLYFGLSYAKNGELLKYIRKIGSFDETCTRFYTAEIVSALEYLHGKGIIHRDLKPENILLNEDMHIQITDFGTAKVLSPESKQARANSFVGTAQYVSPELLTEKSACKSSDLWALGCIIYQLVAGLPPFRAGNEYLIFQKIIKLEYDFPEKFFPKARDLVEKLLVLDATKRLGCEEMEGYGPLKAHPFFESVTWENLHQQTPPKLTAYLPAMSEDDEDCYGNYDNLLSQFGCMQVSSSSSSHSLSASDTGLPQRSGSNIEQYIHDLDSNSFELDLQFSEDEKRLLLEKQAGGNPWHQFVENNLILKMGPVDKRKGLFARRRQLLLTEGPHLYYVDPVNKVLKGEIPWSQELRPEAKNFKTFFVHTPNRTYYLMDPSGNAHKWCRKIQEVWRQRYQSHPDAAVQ
UniProt Q9UBF8: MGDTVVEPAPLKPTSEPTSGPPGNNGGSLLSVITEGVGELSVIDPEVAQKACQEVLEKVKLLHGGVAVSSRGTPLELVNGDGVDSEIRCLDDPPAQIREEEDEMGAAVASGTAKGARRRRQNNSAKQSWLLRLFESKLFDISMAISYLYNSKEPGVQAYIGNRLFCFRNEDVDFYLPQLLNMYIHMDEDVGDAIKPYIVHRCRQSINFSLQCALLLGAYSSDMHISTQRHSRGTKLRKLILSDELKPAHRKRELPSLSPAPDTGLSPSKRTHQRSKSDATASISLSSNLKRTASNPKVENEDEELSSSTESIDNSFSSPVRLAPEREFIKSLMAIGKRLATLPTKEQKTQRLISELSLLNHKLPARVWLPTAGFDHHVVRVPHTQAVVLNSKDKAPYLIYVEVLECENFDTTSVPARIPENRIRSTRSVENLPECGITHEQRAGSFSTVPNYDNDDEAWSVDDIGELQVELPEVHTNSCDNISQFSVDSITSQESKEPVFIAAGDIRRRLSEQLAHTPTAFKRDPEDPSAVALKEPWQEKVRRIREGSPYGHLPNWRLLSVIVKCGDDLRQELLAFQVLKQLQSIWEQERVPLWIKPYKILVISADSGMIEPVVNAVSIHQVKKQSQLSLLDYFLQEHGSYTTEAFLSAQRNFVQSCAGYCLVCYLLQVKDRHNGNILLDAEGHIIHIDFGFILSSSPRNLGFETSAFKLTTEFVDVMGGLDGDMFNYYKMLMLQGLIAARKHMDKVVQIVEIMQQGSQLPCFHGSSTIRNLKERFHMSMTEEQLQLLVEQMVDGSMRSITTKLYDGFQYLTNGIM
UniProt P53350, whole entry: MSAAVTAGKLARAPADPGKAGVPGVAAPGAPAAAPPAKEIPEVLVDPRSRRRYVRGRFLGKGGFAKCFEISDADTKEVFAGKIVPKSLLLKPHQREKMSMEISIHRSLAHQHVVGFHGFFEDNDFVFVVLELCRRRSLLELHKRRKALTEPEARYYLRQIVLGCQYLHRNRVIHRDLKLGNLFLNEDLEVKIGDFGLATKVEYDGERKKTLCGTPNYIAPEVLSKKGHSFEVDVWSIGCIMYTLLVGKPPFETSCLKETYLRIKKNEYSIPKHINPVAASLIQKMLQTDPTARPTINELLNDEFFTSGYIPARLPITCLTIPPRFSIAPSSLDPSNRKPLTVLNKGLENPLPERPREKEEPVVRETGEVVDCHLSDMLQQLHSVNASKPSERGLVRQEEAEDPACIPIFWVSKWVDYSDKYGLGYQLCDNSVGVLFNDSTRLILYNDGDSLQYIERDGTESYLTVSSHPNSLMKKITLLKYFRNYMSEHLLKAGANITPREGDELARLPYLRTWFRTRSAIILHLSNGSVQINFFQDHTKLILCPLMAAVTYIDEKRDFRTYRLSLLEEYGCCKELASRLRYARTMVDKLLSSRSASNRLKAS
UniProt Q13131: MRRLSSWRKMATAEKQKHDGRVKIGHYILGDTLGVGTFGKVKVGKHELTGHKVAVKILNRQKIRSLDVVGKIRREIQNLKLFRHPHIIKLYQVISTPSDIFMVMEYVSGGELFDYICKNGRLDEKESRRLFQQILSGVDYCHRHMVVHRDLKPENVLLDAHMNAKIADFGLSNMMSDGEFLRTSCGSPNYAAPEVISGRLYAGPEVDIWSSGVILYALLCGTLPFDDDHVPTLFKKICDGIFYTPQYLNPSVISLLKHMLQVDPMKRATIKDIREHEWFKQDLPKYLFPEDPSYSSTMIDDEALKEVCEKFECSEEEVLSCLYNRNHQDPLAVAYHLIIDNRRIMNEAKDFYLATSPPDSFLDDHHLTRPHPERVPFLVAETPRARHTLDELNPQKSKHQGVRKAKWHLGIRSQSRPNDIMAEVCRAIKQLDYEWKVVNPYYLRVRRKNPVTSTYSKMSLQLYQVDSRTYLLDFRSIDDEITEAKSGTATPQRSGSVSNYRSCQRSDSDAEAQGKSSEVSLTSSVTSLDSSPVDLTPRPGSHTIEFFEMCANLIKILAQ

How the values were obtained:
Assay in all cases: number of time points (of 5) at which kinase-Nluc abundance scored as decreased, DMSO-normalised (count); higher = more persistent destabilization
Settings in all cases: K562; 2-18 h
NTRK3 = NTRK3 (UniProt Q16288)
PAK4 = PAK4 (UniProt O96013)
PBK = PBK (UniProt Q96KB5)
PDGFRB = PDGFRB (UniProt P09619)
PDK1 = PDK1 (UniProt Q15118)
PDPK1 = PDPK1 (UniProt O15530)
PIK4CA = PIK4CA (UniProt P42356)
PIK4CB = PIK4CB (UniProt Q9UBF8)
PLK1 = PLK1 (UniProt P53350)
PRKAA1 = PRKAA1 (UniProt Q13131)

Measured: number of time points

COc1ccc(-n2c(C)c([N+](=O)[O-])c3ccc(O)cc32)cc1 (10 µM)
4: PRKAA1
0: all other assays above

CC(C)c1ccc(CC(=O)N2CCN(c3ccc(C#N)nn3)CC2)cc1 (10 µM)
0: all assays above

N#C/C(=C\c1ccc2oc(=O)[nH]c2c1)C(=O)c1ccc(O)c(O)c1 (10 µM)
0: all assays above

NCCCCCCNS(=O)(=O)c1cccc2c(Cl)cccc12 [W-7 (hydrochloride)] (10 µM)
0: all assays above

Oc1ccccc1C(=S)N1CCCC1 (10 µM)
0: all assays above

CC(=O)NCCc1c[nH]c2ccc(O)cc12 [N-Acetyl-5-hydroxytryptamine] (10 µM)
0: all assays above

C=CC(=O)N1CCC(Oc2cc3c(Nc4ccc(Cl)c(Cl)c4F)ncnc3cc2OC)CC1 [Poziotinib] (2.5 µM)
0: all assays above

O=C(O)CCc1ccc(NCc2cccc(Oc3ccccc3)c2)cc1 (10 µM)
0: all assays above

CC[C@H](C)[C@H](NC(=O)[C@H](CCC(=O)O)NC(=O)[C@H](CCCN=C(N)N)NC(=O)[C@H](CCCN=C(N)N)NC(=O)[C@@H](N)CCCCN)C(=O)N[C@@H](CC(C)C)C(=O)N[C@@H](CO)C(=O)N[C@@H](CCCN=C(N)N)C(=O)N[C@@H](CCCN=C(N)N)C(=O)N1CCC[C@H]1C(=O)N[C@@H](CO)C(=O)N[C@@H](Cc1ccc(O)cc1)C(=O)N[C@@H](CCCN=C(N)N)C(=O)O [CREBtide] (10 µM)
0: all assays above

Arranged by number of heavy atoms (smallest number first): some entries from above.
Oc1ccccc1C(=S)N1CCCC1 (10 µM)
0: all assays above

O=C(O)CCc1ccc(NCc2cccc(Oc3ccccc3)c2)cc1 (10 µM)
0: all assays above

CC[C@H](C)[C@H](NC(=O)[C@H](CCC(=O)O)NC(=O)[C@H](CCCN=C(N)N)NC(=O)[C@H](CCCN=C(N)N)NC(=O)[C@@H](N)CCCCN)C(=O)N[C@@H](CC(C)C)C(=O)N[C@@H](CO)C(=O)N[C@@H](CCCN=C(N)N)C(=O)N[C@@H](CCCN=C(N)N)C(=O)N1CCC[C@H]1C(=O)N[C@@H](CO)C(=O)N[C@@H](Cc1ccc(O)cc1)C(=O)N[C@@H](CCCN=C(N)N)C(=O)O [CREBtide] (10 µM)
0: all assays above

(further entries)

COc1c(O)cc2oc3cc(O)c(CC=C(C)C)c(O)c3c(=O)c2c1CCC(C)(C)O [Garcinone D] (2.5 µM)
0: all assays above

CC1=C(C(=O)Nc2ccc3[nH]ncc3c2)C(c2ccc(F)cc2)NC(=O)N1 (stereo not given) (10 µM)
0: all assays above

CC1=C(CC(=O)O)c2cc(F)ccc2/C1=C\c1ccc(C(C)C)cc1 (10 µM)
1: PLK1
0: all other assays above

N=C(N)NC(=N)NCCc1ccccc1 [Phenformin (hydrochloride)] (10 µM)
0: all assays above

COc1c(C)c(C(=O)c2ccc(N)c(C(=O)O)c2)n2ccccc12 (10 µM)
0: all assays above

CCOc1nc(Nc2ccc(C(=O)N3CCOCC3)cc2OC)nc2[nH]ccc12 [LRRK2 inhibitor 1] (2.5 µM)
0: all assays above

Nc1[nH]c(=O)nc2c1ncn2[C@@H]1O[C@H](CO)[C@@H](O)[C@H]1O [Crotonoside] (10 µM)
0: all assays above

CC(C)C[C@H](NC(=O)[C@H](CCCCN)NC(=O)[C@H](CO)NC(=O)[C@@H](N)CC(C)C)C(N)=O [LSKL, Inhibitor of Thrombospondin (TSP-1) (TFA)] (10 µM)
0: all assays above

CNC(=O)c1cc(Oc2ccc3nc(N[C@@H]4CCCC[C@H]4O)sc3c2)ccn1 (10 µM)
0: all assays above

COc1ccc(CN2C3CC2CN(c2ccc(-c4cc(OCC(C)(C)O)cn5ncc(C#N)c45)cn2)C3)cn1 [Selpercatinib] (10 µM)
0: all assays above
